Some of the results follow. Entries with a potency or affinity are not part of this list.
Tested on: Acinetobacter baumannii
Conditions: Concentration 20 uM; ASSAY_TEST Inhibition of Bacterial Growth; detection method Absorption (OD600); MEDIA CAMHB; plate type 384well; NBS; CORNING #3640; time 18 hr

SMILES	Inhibition [%]
CC1(C)OB(O)c2ccc(C3=NOC(c4cc(Cl)c(F)c(Cl)c4)(C(F)(F)F)C3)cc21 (stereo not given)	6.67
CO[C@@H](C(=O)N1Cc2[nH]nc(NC(=O)c3ccc(N4CCN(C)CC4)cc3)c2C1)c1ccccc1 [DANUSERTIB]	11.13
CNCCC(Oc1ccc(C(F)(F)F)cc1)c1ccccc1 (stereo not given) [FLUOXETINE]	-2.58
Cc1cccc(C(=O)Nc2ccnc(N(C)C3CCN(CC(C)C)CC3)c2)c1	4.98
Cc1nn(Cc2ccccc2)c(Cl)c1C(=O)NC1CCCCCC1	8.48
Cc1cc(C2=NOC(c3cc(Cl)c(F)c(Cl)c3)(C(F)(F)F)C2)ccc1C(=O)NCc1ccc2c(c1)C(C)(C)OB2O (stereo not given)	3.06
CO[C@@H]1CN(c2ccc(C#CC3(O)CN4CCC3CC4)c(Cc3ccccc3)n2)C[C@H]1O (stereo not given in full)	7.79
CC(=O)Oc1ccccc1C(=O)Nc1ncc([N+](=O)[O-])s1 [NITAZOXANIDE]	9.65
Cc1nn(C)c(C)c1NS(=O)(=O)c1c(Cl)cc(-c2ccnc(N3CCNCC3)c2)cc1Cl	12.74
Nc1c2c(nc3sc4c(c13)CCCC4)CCCC2	12.49

2 consecutive records from above:
SMILES	Inhibition [%]
Cc1nn(Cc2ccccc2)c(Cl)c1C(=O)NC1CCCCCC1	8.48
Cc1cc(C2=NOC(c3cc(Cl)c(F)c(Cl)c3)(C(F)(F)F)C2)ccc1C(=O)NCc1ccc2c(c1)C(C)(C)OB2O (stereo not given)	3.06

From ChEMBL document CHEMBL4513149, “CO-ADD screening of MMV (CH) - MMV compounds” (2021)
